# Test results published in PubChem BioAssay AID488837 (National Center for Advancing Translational Sciences (NCATS), 2010).
# Chains of the proteins cited; added tags and fusions are not shown. Lines headed by an entry give the natural chain unless they say otherwise; changes in a name come on top.
# UniProt O00167: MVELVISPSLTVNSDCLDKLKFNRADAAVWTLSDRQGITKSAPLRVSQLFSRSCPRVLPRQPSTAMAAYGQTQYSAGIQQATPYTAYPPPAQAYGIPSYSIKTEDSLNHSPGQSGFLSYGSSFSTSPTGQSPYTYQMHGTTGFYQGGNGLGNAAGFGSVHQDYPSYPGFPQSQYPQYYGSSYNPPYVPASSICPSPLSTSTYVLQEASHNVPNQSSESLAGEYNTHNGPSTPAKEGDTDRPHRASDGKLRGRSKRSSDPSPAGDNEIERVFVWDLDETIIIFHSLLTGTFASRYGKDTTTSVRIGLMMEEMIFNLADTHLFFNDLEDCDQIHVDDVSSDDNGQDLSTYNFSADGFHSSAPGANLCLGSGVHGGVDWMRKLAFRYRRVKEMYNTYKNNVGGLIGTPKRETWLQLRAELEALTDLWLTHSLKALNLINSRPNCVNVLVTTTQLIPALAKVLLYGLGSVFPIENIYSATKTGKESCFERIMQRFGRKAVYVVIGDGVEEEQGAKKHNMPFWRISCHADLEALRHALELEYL
# In all, about 330,000 compounds went through this assay and about 20 (0.006%) were called active. The shares of active, inactive and inconclusive entries below differ from those in the screen. The call rests on the fitted dose curve; in most records, active means well fitted inhibition curve with a large enough effect; inconclusive means small, poorly fitted or top-dose-only effect, or effect the other way; inactive means flat fitted curve, though single readings scatter. Potencies beside an inconclusive call are fits to weak or partial responses and may not hold up.
# Target: Protein phosphatase EYA2 (Homo sapiens) (UniProt O00167)
# Assay: qHTS Assay for Inhibitors of the Phosphatase Activity of Eya2
# Conditions: recombinant Eya2, OMFP fluorescence dephosphorylation (OMFP is methylfluorescein phosphate); activity, negative = inhibition: at 76.9 µM (top of the series) unless noted
# Method in brief: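 Eya2 protein (added as 0.2 uM solution) was preincubated with compound for 10 min at ambient temperature in 50 mM HEPES pH 7.5, 50 mM NaCl, 5 uM MgCl2, 0.05% BSA, 1 mM DTT. OMFP (added at 50 uM) then reacted 10 min; fluorescence read at 485/525 nm.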
# On the % scale 0 is the no-effect control and ±100 the full control effect; potency means the concentration at half of the fitted maximal effect.
SMILES,Potency,"activity, negative = inhibition"
CC1CN(C(=O)/C=C/c2ccc(SC(F)F)cc2)CC(C)O1 (stereo unspecified),"inconclusive: 25.1 µM [inhibitor, single point]",–
COc1ccc(C2(C(=O)Nc3cc(C)on3)CCOCC2)cc1,inactive,–
O=C(NCCc1ccc(Cl)cc1)C1CCN(C(=O)N2CCOc3ccccc32)CC1,"inconclusive: 15.8 µM [inhibitor, partial curve, poor fit]",–
Cc1cccn2c(=O)c3cc(C(=O)NCCN4CCOCC4)c(=N)n(CCCN4CCOCC4)c3nc12,"inconclusive: 100 µM [inhibitor, single point]",–
O=C1NC(=O)/C(=C/c2ccc(O)cc2)S1,"inconclusive: 100 µM [inhibitor, partial curve, poor fit]",–
COC(=O)c1sc(SC)c2c1CC(C)(C)C/C2=N/O,"inconclusive: 89.1 µM [inhibitor, single point]",–
COc1ccc(NC(=O)c2cc(-c3ccc(C)cc3)on2)cc1OC,"inconclusive: 89.1 µM [inhibitor, single point]",–
Cc1ccc(-n2nc(C)c(=O)c(-c3ccccc3)c2NC(=O)C(C)C)cc1,–,inconclusive: -36.1% [inhibitor]
N#Cc1cc2c(ccc3ccccc32)oc1=O,inactive,–
COc1ccc(OC)c(NC(=O)c2cc3c(Cl)nc4ccccc4c3s2)c1,inactive,–
COC(=O)c1cc(Cl)c(NC(=O)/C=C/c2ccc(Cl)cc2)cc1OC,inactive,–
O=C(Nc1ccc(C2=NCCN2)cc1)c1ccc(C(=O)Nc2ccc(C3=NCCN3)cc2)c(Cl)c1,"inconclusive: 100 µM [inhibitor, single point]",–
COc1cccc(C(=O)COc2ccc3c(C)cc(=O)oc3c2)c1,"inconclusive: 100 µM [inhibitor, single point]",–
COc1cc(/C=C(\C#N)c2nc3c(s2)CC(C)CC3)ccc1O (stereo unspecified),–,inconclusive: 53% [activator]
CC1(C)OC(=O)C(=CNc2cccc(O)c2)C(=O)O1,"inconclusive: 63.1 µM [inhibitor, partial curve]",–
CC(=O)c1ccc(NC(=S)Nc2cccc3ccccc23)cc1,"inconclusive: 158 µM [inhibitor, partial curve]",–
COc1ccc(/C(O)=C/C(=O)C(=O)Nc2c(C)n(C)n(-c3ccccc3)c2=O)cc1,"inconclusive: 89.1 µM [inhibitor, single point]",–
Cc1cc(/C=C(\C#N)C(N)=O)c(C)n1-c1ccc(N2CCOCC2)c([N+](=O)[O-])c1,inactive,–
CCOC(=O)/C=c1\s/c(=C\c2ccccc2C)c(=O)n1CC(=O)NCc1ccc2c(c1)OCO2,inactive,–
O=S(=O)(Nc1cccc2ccccc12)c1ccccc1,"inconclusive: 89.1 µM [inhibitor, single point]",–
CN(C)CCn1c2c(c(SCC(=O)Nc3cccc(C(F)(F)F)c3)nc1=O)CCCC2,inactive,–
COc1ccccc1-c1nc(C#N)c(N2CCN(Cc3ccccc3)CC2)o1,inactive,–

SMILES,Potency,"activity, negative = inhibition"
COc1cc(CNCc2ccccn2)ccc1OCc1cccc(Cl)c1,"inconclusive: 17.8 µM [inhibitor, single point]",–
N=c1c(S(=O)(=O)c2ccccc2)cc2c(=O)n3ccccc3nc2n1Cc1cccnc1,"inconclusive: 126 µM [activator, partial curve, poor fit]",–
CC(=O)[C@]1(O)Cc2c(O)c3c(c(O)c2[C@@H](O[C@H]2C[C@H](N)[C@H](O)[C@H](C)O2)C1)C(=O)c1ccccc1C3=O,"inconclusive: 126 µM [activator, partial curve]",–
Cc1noc(C)c1COc1cccc(C(=O)N2CCc3ccccc32)c1,"inconclusive: 100 µM [inhibitor, single point]",–
Cc1ccc(NC(=O)c2ccc(Cl)nc2)cc1,"inconclusive: 89.1 µM [inhibitor, single point]",–
O=[N+]([O-])c1cc(C(F)(F)F)ccc1N1CCC(O)CC1,"inconclusive: 20 µM [inhibitor, single point]",–
COc1ccc(C(=O)Nc2ccc3c4c(cccc24)CC3)cc1,"inconclusive: 141 µM [inhibitor, partial curve]",–
Cc1cccc(C)c1OCC(=O)NCC1CCCO1 (stereo unspecified),"inconclusive: 100 µM [inhibitor, single point]",–
O=C(CNC(=O)c1ccc(S(=O)(=O)N2CCCCC2)cc1)N/N=C/c1ccco1,"inconclusive: 17.8 µM [inhibitor, single point]",–
FC(F)(F)c1cccc(NC(=S)Nc2cccc(Cl)c2)c1,"inconclusive: 31.6 µM [inhibitor, partial curve]",–
Cc1cc(=O)oc2cc(NC(=S)NCc3cccnc3)ccc12,"inconclusive: 100 µM [inhibitor, single point]",–
O=C(CSc1ccccc1)NCC(c1ccco1)N1CCCCC1 (stereo unspecified),"inconclusive: 100 µM [inhibitor, single point]",–
CC(Oc1ccccc1)C(=O)Nc1nc2c(s1)C(=O)CC(C)(C)C2 (stereo unspecified),"inconclusive: 708 µM [inhibitor, single point]",–
Cc1ccc(COc2ccc(-c3nnco3)cc2)cc1,"inconclusive: 89.1 µM [inhibitor, partial curve, poor fit]",–
CCC(=O)N1c2ccc(S(=O)(=O)CCC(=O)N3CCN(c4ccccc4F)CC3)cc2CC1C (stereo unspecified),"inconclusive: 316 µM [inhibitor, single point]",–
Cc1c2cnn(CC(=O)Nc3c(F)c(F)cc(F)c3F)c(=O)c2c(C)n1Cc1ccccc1F,inactive,–
Cc1cc(NC(=O)CCC(=O)N(c2ccccc2)C(C(=O)NC2CCCC2)c2ccccc2F)no1 (stereo unspecified),"inconclusive: 20 µM [inhibitor, single point]",–
N#Cc1cccc(C#N)c1NCC1CCCO1 (stereo unspecified),"inconclusive: 100 µM [inhibitor, single point]",–
O=C(N/N=C\c1c(O)ccc2ccccc12)c1cncc(Br)c1,"inconclusive: 7.94 µM [activator, partial curve]",–
O=C(N/N=C/c1cccc(O)c1)NC1CCCCC1,"inconclusive: 100 µM [inhibitor, single point]",–
Cc1cccc(C)c1NC(=O)CSc1nc(COc2ccccc2)nc2ccccc12,"inconclusive: 22.4 µM [inhibitor, partial curve, poor fit]",–
CCN(CC)c1ccc(SS(=O)(=O)O)cc1,"inconclusive: 35.5 µM [inhibitor, partial curve]",–

# By substructure: those above containing a furan ring, fused or not.
SMILES,Potency,"activity, negative = inhibition"
O=C(CNC(=O)c1ccc(S(=O)(=O)N2CCCCC2)cc1)N/N=C/c1ccco1,"inconclusive: 17.8 µM [inhibitor, single point]",–
O=C(CSc1ccccc1)NCC(c1ccco1)N1CCCCC1 (stereo unspecified),"inconclusive: 100 µM [inhibitor, single point]",–

# Next part:

SMILES,Potency,"activity, negative = inhibition"
CN(C(=O)CCS(=O)(=O)c1cc2c(cc1Cl)NC(=O)CO2)C1CCCCC1,"inconclusive: 50.1 µM [inhibitor, partial curve, poor fit]",–
COc1cccc(C2NC(=O)NC(C)=C2C(=O)Nc2ccc(C)cc2)c1 (stereo unspecified),"inconclusive: 126 µM [inhibitor, partial curve, poor fit]",–
CCCCc1cc(=O)oc2cc(OS(C)(=O)=O)ccc12,inactive,–
CCOC(=O)c1nn(-c2ccccc2C)c(=O)c(C#N)c1C,inactive,–
CSc1ncccc1C(=O)N1CCN(S(=O)(=O)c2cc(C)ccc2C)CC1,inactive,–
CCn1cc(C(=O)O)c(=O)c2cnc(N3CCN(C(=S)NC(=O)c4ccc(Br)cc4)CC3)nc21,"inconclusive: 100 µM [inhibitor, single point]",–
COc1cccc(OC)c1C(=O)OCC(=O)Nc1cccnc1Cl,"inconclusive: 28.2 µM [inhibitor, partial curve]",–
COc1ccc(NS(=O)(=O)c2cccc(NC(=O)C3=NN(c4ccccc4)C(=O)CC3)c2)cc1,inactive,–
COc1ccc(-n2c(SCC(=O)Nc3cccc(S(N)(=O)=O)c3)nc3ccccc3c2=O)cc1OC,"inconclusive: 89.1 µM [inhibitor, single point]",–
CC(C)COc1ccc(CSCCNC(=S)Nc2ccccc2)cc1,"inconclusive: 126 µM [inhibitor, partial curve]",–
Cc1c(CCOC(=O)C23CC4(C)CC(C)(CC(C)(C4)C2)C3)sc[n+]1CC(=O)c1ccccc1,"inconclusive: 316 µM [inhibitor, partial curve]",–
COc1ccc2c(c1)c1ncnc(N3CCN(Cc4ccc5c(c4)OCO5)CC3)c1n2C,inactive,–
Cc1cc(OC(C)C(=O)Nc2ccc(S(=O)(=O)Nc3onc(C)c3C)cc2)cc(C)c1Cl (stereo unspecified),"inconclusive: 70.8 µM [inhibitor, partial curve]",–
O=C(N/N=C/c1cccc2ccccc12)c1cc(C2CC2)[nH]n1,"inconclusive: 100 µM [inhibitor, single point]",–
O=C(C(Cc1ccccc1)n1cccc1)N1CCN(c2ccccc2)CC1 (stereo unspecified),inactive,–
COc1ccc(C2c3ccc4ccccc4c3Oc3ncn(CCN4CCOCC4)c(=N)c32)cc1OC (stereo unspecified),"inconclusive: 89.1 µM [inhibitor, single point]",–
CCN1C(=O)/C(=C/C=C2\N(CC)c3cc(S(=O)(=O)N(C)C)ccc3N2c2ccccc2)SC1=S,"inconclusive: 63.1 µM [activator, partial curve, poor fit]",–
COC(=O)c1cn(NC(=O)C2CCC(C)CC2)c(=O)c2ccccc12 (stereo unspecified),"inconclusive: 398 µM [inhibitor, single point]",–
O=C(O)c1ccc(N2C(=O)c3[nH]nc(-c4ccccc4)c3C2c2ccccc2)cc1 (stereo unspecified),inactive,–
NS(=O)(=O)c1ccc(N/N=C/c2cn(-c3ccccc3)nc2-c2cccs2)cc1,inactive,–
CCc1ccc(CN(C)C(C)C(=O)NCc2ccccc2)cc1 (stereo unspecified),"inconclusive: 89.1 µM [inhibitor, single point]",–
CCC(C)NC(=O)COCc1cc(-c2ccc3c(c2)OCO3)on1 (stereo unspecified),"inconclusive: 100 µM [inhibitor, single point]",–
